# According to the supplement of paper PMC5407854, “Inhibitor of ppGalNAc-T3-mediated O-glycosylation blocks cancer cell invasiveness and lowers FGF23 levels” (eLife, 2017):
# In all, about 1,700 compounds were measured (“T2 sensor activation Q score (MG/GFP ratio z-score vs DMSO controls)”: median about 0.3, highest 2% from about 1.9 on). This is one part of the list.
# Tested on: ppGalNAc-T2 sensor
# Experiment: T2 sensor activation Q score (MG/GFP ratio z-score vs DMSO controls) (SD units); higher = more sensor activation (inhibition of ppGalNAc-T2 glycosylation)
# Conditions: HEK293 sensor cells; 10 µM; 6 h
# Protocol: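 Cells were treated with compound at 10 uM for 6 h, then MG/GFP ratio was read by flow cytometry (10,000 cells per well, duplicate wells). Q = (R - R_neg)/SD_neg relative to DMSO vehicle controls; the signal rises when the glycosyltransferase is inhibited.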
row,SMILES,T2 sensor activation Q score
1,CN(C)S(=O)(=O)Nc1cccc(Br)c1,-0.25
2,N#CC1=C(Nc2ccccc2Cl)SC(c2ccccc2O)NC1=O (centres undefined),0.2
3,CN(C)S(=O)(=O)Nc1ccccn1,0.25
4,COc1ccccc1/C=C/C(=O)/C=C/c1ccccc1O,1.7
5,Cc1nc2cc[nH]n2c(=O)c1CCc1ccccc1,0.35
6,CC(=O)[C@H]1CC[C@H]2[C@@H]3CCC4=CC(=O)CC[C@]4(C)[C@@]3(F)[C@@H](O)C[C@]12C,-1.95
7,CC(=O)[C@H]1CC[C@H]2[C@@H]3CCC4=CC(=O)C=C[C@]4(C)[C@H]3C(=O)C[C@]12C,1.65
8,COC(=O)Cc1[nH]c(=S)[nH]c1C(=O)OC,1.2
9,Cc1cccc(NC(=S)Nc2cccc(C)n2)n1,1.4
10,C=CCNC(=S)NCC=C,-1.6
11,O=C1C2C3C=CC(CC3)C2S(=O)(=O)C2C3C=CC(CC3)C12 (centres undefined),1.8
12,c1ccc(-c2ccc3c(c2)NC(C2Nc4cc(-c5ccccc5)ccc4O2)O3)cc1 (centres undefined),-0.1
13,Cc1cc(NC(=O)Nc2cc(Cl)ccc2C)no1,-1
14,CN(C)N1C(=O)c2c(Cl)c(Cl)c(Cl)c(Cl)c2C1=O,0.65
15,N#CC1=C(Nc2ccccc2Cl)SC(c2ccncc2)NC1=O (centres undefined),1.8
16,ClN=C1C=CC=CC1=NCl,1.45
17,Clc1nnc2c3ccccc3ccn12,1.85
18,Cc1nc(N)[nH]c(=O)c1CCCNc1ccc(CCC2(CCl)OCCO2)cc1,0.2
19,NC(N)=Nc1nc2ccc([N+](=O)[O-])cc2[nH]1,0.35
20,c1ccc2sc(SCSc3nc4ccccc4s3)nc2c1,-1.6
21,Nc1cccc2c1CN(C1CCC(=O)NC1=O)C2=O (centres undefined),-0.4
22,O=C(Cn1ccc(=O)[nH]c1=O)Nc1ccc(C(=O)O)c(O)c1,0.5
23,O=C1OCC/C1=C\c1ccc(O)cc1,1.3
24,C=C(C)CN=CC1(C)CCC(C)=CO1 (centres undefined),0.2
25,CCCNC(=O)Nc1ccc(C)cc1C,0.85
26,S=c1[nH]c2cc(-c3ccccc3)ccc2o1,0.65
27,CCOC(=O)c1nnsc1-c1ccc(-c2snnc2C(=O)OCC)cc1,0.95

row,SMILES,T2 sensor activation Q score
1,COc1ccc(C(=S)N2CCN(c3cccc(Cl)c3)CC2)cc1,0.55
2,O=C(Oc1ccc[nH]c1=O)c1cccc(Cl)c1,1.1
3,CNC(=O)Nc1ccc(S(N)(=O)=O)cc1,0.15
4,Cc1ccc2nc(Cl)cc(=O)n2c1,-0.25
5,C(=C\c1ccc(/C=C/c2ccccc2)nn1)/c1ccccc1,1.45
6,Cc1nnc(Cc2ccccc2)c2n[nH]c(C)c12,0.65
7,Oc1ccc(N=Nc2nccs2)c(O)c1,-0.75
8,O=C(Nc1cc(-c2ccccc2)[nH]n1)c1ccc(Cl)cc1,1.45
9,NNC(=O)CNc1cccc(Br)c1,-0.1
10,Nc1nc(Nc2ccccc2)n[nH]1,1.2
11,COc1ccc(N=Nc2c(N)n[nH]c2N)cc1,-0.95
12,O=C(Nc1ccc2ncccc2c1)Nc1ccc2ncccc2c1,-0.4
13,O=C1C(Cl)=C(O)C2(Cl)C(Cl)=C(Cl)C12Cl (centres undefined),1
14,Cc1cccc2cc3cccc(C)c3nc12,0.3
15,CCOC(=O)c1cnc(SCC)[nH]c1=O,0.9
16,COc1ccc(C(=S)N2CCN(c3ccccc3Cl)CC2)cc1OC,0.45
17,COC(=O)c1c[n+]([O-])ccc1OC,1.25
18,CC1OC1c1ccc(-c2ccc(C3OC3C)cc2)cc1 (centres undefined),0.65
19,NC(=O)c1ncn2c(=O)n(CCCl)nnc12,0.9
20,CN(C)CCCN1c2ccc3ccccc3c2Sc2cccc(Cl)c21,-1.75
21,O=C(NCc1ccco1)Nc1ccc([N+](=O)[O-])cc1,1.75
22,O=C(O)C1=NN(c2cc(Cl)c(S(=O)(=O)O)cc2Cl)C(=O)C1,1.3
23,CCC(C)Oc1nc2c(c(=O)n(C)c(=O)n2C)n1C (centres undefined),1.5
24,O=C(Nc1ccc(Br)cc1)Nc1ccccc1Cl,-0.9
25,CCCCCCC(C)OC(=O)c1ccccc1C(=O)O (centres undefined),-1.1
26,CC(=O)O[C@H]1CC[C@@]2(C)[C@@H](CC[C@@H]3[C@@H]2CC(=O)[C@@]2(C)[C@H]3C[C@@H]3CC(C)=CC(=O)[C@@H]32)C1,-1.75
27,Clc1cc2c(c(CSc3nc4ccccc4n4cccc34)c1)OCOC2,0.95

# Four compounds drawn at random from those above, as already listed:
row,SMILES,T2 sensor activation Q score
18,Cc1nc(N)[nH]c(=O)c1CCCNc1ccc(CCC2(CCl)OCCO2)cc1,0.2
4,Cc1ccc2nc(Cl)cc(=O)n2c1,-0.25
20,CN(C)CCCN1c2ccc3ccccc3c2Sc2cccc(Cl)c21,-1.75
3,CNC(=O)Nc1ccc(S(N)(=O)=O)cc1,0.15
